Source: PubChem BioAssay AID493014 (National Center for Advancing Translational Sciences (NCATS), 2011)
Some of the results follow. The main result of the screen is listed elsewhere. These columns were measured beside it and carry no call. Most of these compounds were active or inconclusive in the main read-out, so they are no random draw. Potencies come from curve fits of mixed quality, noted in brackets.

Experiment: qHTS Assay to Find Inhibitors of Chronic Active B-Cell Receptor Signaling
Conditions: ABC-DLBCL IkBa-CBG/CBR reporter, luminescence ratio (green luciferase fused to IkBa over red control in TMD8 lymphoma cells), 4 h
Procedure, shortened: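 TMD8 human ABC-DLBCL cells with doxycycline-inducible IκBα–green luciferase fusion and unfused red luciferase, in 0.5% FBS medium; compounds up to 46 uM, 4 h at 37C. Green/red luminescence ratio, filter-overlap corrected, fitted to concentration-response curves.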

[1] = measured here: CBR red luminescence, cell number
[2] = measured here: IkBa-CBG green luminescence

Question: Which AC50 [1] does the source give for `CCn1c(SCC(=O)N/N=C/C=C\c2ccccc2[N+](=O)[O-])nc2ccccc21` here?
Answer: Its AC50 is 32.6 µM [falling, single point].

Question: With `O=C(COC(=O)c1ccc(O)cc1)Nc1ccc(S(=O)(=O)N2CCCC2)cc1` as the molecule, how does the AC50 [1] read?
Answer: Its AC50 is 29.1 µM [falling, single point].

Question: Which AC50 [1] does the source give for `CCN(CC)CCCNC(=O)c1cc2c(=O)n(C)c3ccccc3c2n1C` here?
Answer: Its AC50 is 5.8 µM [falling, partial curve, poor fit].

Question: Which AC50 [1] does the source give for `O=c1c2cc(Cl)ccc2nc(-c2ccc(Cl)c(Cl)c2)n1O` here?
Answer: Its AC50 is 1.58 µM [falling, full curve].

Question: With `O=C(Cn1cnc2ccccc21)c1ccc(Br)cc1` as the molecule, how does the AC50 [1] read?
Answer: Its AC50 is 17.8 µM [rising, single point].

Question: Which AC50 [1] does the source give for `CCOC(=O)CCCCC(=O)c1[nH]c(=O)[nH]c1CSc1nc(C)cc(C)n1` here?
Answer: Its AC50 is 8.91 µM [rising, partial curve, poor fit].

Question: Which AC50 [2] does the source give for `COc1ccc(C(=O)Nc2ccc(-n3nncc3-c3ccc(OC)c(OC)c3)cc2)cc1` here?
Answer: The AC50 was 6.31 µM [falling, partial curve].

Question: For `COc1ccc(NC(=O)CNC(=O)c2ccco2)cc1`, which AC50 [1] is on record?
Answer: The AC50 was 17.8 µM [rising, partial curve, poor fit].

Question: For `COc1ccccc1NC(=O)c1ccc([N+](=O)[O-])cc1[N+](=O)[O-]`, which AC50 [1] is on record?
Answer: The AC50 was 12.6 µM [falling, partial curve].

Question: For `CCN(C(=O)COC(=O)c1cc2ccccc2cc1O)C1CCS(=O)(=O)C1` (configuration not stated), which AC50 [1] is on record?
Answer: The AC50 was 12.6 µM [falling, partial curve, poor fit].

Question: For `CC(C)N(C(=O)CSc1nc2ccccc2c(=O)[nH]1)C(C)C`, which AC50 [1] is on record?
Answer: The AC50 was 0.447 µM [falling, full curve, poor fit].

Question: For `O=C(Cc1ccccc1)N1CCCC(c2nc(-c3ccc(S(=O)(=O)N4CCCC4)cc3)no2)C1` (configuration not stated), which AC50 [1] is on record?
Answer: The AC50 was 29.1 µM [rising, single point].

Question: Which AC50 [1] does the source give for `CC(=O)CSc1ncnc2c1cnn2-c1ccccc1` here?
Answer: Its AC50 is 11.2 µM [falling, single point].

Question: For `COc1cc(O)c(C(CCN2CCCCC2)c2ccc(N(C)C)cc2)c(OC)c1` (configuration not stated), which AC50 [1] is on record?
Answer: The AC50 was 0.631 µM [rising, partial curve, poor fit].

Question: For `Cc1ccsc1C(=O)OCC(=O)NCCC1=CCCCC1`, which AC50 [1] is on record?
Answer: Its AC50 is 0.651 µM [rising, full curve].

Question: Which AC50 [1] does the source give for `CCc1cccc2cc3c(N)c(C(=O)Nc4ccc(S(=O)(=O)N5CCCC5)cc4)sc3nc12` here?
Answer: Its AC50 is 16.4 µM [rising, partial curve].

Question: For `CCc1c(C)c(C#N)c2nc3ccccc3n2c1NC`, which AC50 [1] is on record?
Answer: Its AC50 is 22.4 µM [rising, partial curve, poor fit].

Question: Which AC50 [1] does the source give for `O=C(Nc1ccccn1)c1ccc(NC(=O)c2ccco2)cc1` here?
Answer: Its AC50 is 22.4 µM [falling, single point].

Question: With `O=C(/C=C/c1ccc(Br)cc1)NC1CCCCCC1` as the molecule, how does the AC50 [1] read?
Answer: Its AC50 is 3.55 µM [falling, full curve].

Question: Which AC50 [1] does the source give for `Cc1nn(C(C)C(=O)NCCc2ccco2)c(=O)c2nn(-c3ccccc3)c(C)c12` (configuration not stated) here?
Answer: The AC50 was 28.2 µM [rising, single point].

Question: Which results are given for `COC(=O)[C@@]1(Cc2ccc(OC)cc2)[C@@H]2C(=CC(=O)[C@H]2CC(=O)C(=O)N(C)C)CN1C(=O)c1ccccc1`?
Answer: AC50 [1]: 10.3 µM [falling, partial curve, poor fit]; AC50 [2]: 16.4 µM [falling, single point]

Question: With `C[C@@H](NC(=O)c1[nH]cnc1C(=O)Nc1ccccc1)c1ccccc1` as the molecule, how does the AC50 [1] read?
Answer: Its AC50 is 3.66 µM [falling, full curve].

Question: With `O=c1[nH]c(CN2CCc3ccccc3C2)nc2ccccc12` as the molecule, how does the AC50 [1] read?
Answer: The AC50 was 29.1 µM [falling, single point].

Question: With `CCC(=O)NC1CC(=O)N(c2ccc3c(c2)OCCO3)C1` (configuration not stated) as the molecule, how does the AC50 [1] read?
Answer: Its AC50 is 0.0891 µM [falling, full curve, poor fit].

Question: Which AC50 [1] does the source give for `Cc1ccc(N2C(=O)CSC2c2cccnc2)c(Cl)c1` (configuration not stated) here?
Answer: The AC50 was 22.4 µM [falling, single point].

Question: For `Cc1ccc(NC(=O)c2sccc2C)nc1`, which AC50 [1] is on record?
Answer: Its AC50 is 8.91 µM [falling, partial curve, poor fit].

Question: With `COc1cc(/C=C(/C#N)C(=O)Nc2ccccc2)c(Br)cc1OCc1ccc(C(=O)O)cc1` as the molecule, how does the AC50 [1] read?
Answer: The AC50 was 0.316 µM [falling, full curve].

Question: With `Cc1c(-c2ccc(F)cc2)nc(N)c(C#N)c1-c1cccs1` as the molecule, how does the AC50 [1] read?
Answer: Its AC50 is 17.8 µM [rising, partial curve, poor fit].

Question: With `Cc1c(C#N)c2ccccc2n1CC(=O)NC(C)c1ccccc1` (configuration not stated) as the molecule, how does the AC50 [1] read?
Answer: The AC50 was 5.8 µM [rising, single point].

Question: What does the source list for `COc1cc(C2C3=C(Nc4ncnn42)c2ccccc2CC3)cc(OC)c1OC` (configuration not stated)?
Answer: AC50 [1]: 7.94 µM [rising, partial curve]; AC50 [2]: 2.51 µM [falling, full curve]

Question: Which AC50 [1] does the source give for `CN1CCN(NC(=O)CN2C(=O)/C(=C/c3ccccc3Cl)SC2=S)CC1` here?
Answer: Its AC50 is 16.4 µM [rising, partial curve, poor fit].

Question: Which AC50 [1] does the source give for `O=C(O)CCCC(=O)NCCc1ccncc1` here?
Answer: The AC50 was 1.64 µM [rising, partial curve, poor fit].

Question: Which AC50 [1] does the source give for `CCOc1ccc(S(=O)(=O)Oc2ccc3ccccc3c2)cc1` here?
Answer: Its AC50 is 29.1 µM [rising, single point].

Question: With `CCOC(=O)c1c(-c2cccc(C)c2)csc1NC(=O)C1CC=CCC1C(=O)O` (configuration not stated) as the molecule, how does the AC50 [1] read?
Answer: The AC50 was 35.5 µM [falling, single point].

Question: For `COc1ccc(OC)c(NC(=O)Cn2cc(C(=O)c3ccco3)c3ccccc32)c1`, which AC50 [1] is on record?
Answer: The AC50 was 20.6 µM [falling, single point].

Question: Which AC50 [1] does the source give for `Cc1ccc(S(=O)(=O)N2CCCCC2)cc1NC(=O)Cn1cc(C(F)(F)F)ccc1=O` here?
Answer: The AC50 was 29.1 µM [falling, single point].

Question: For `CCc1ccc2oc(-c3ccc(OC)cc3)cc(=Nc3c(C)n(C)n(-c4ccccc4)c3=O)c2c1`, which AC50 [1] is on record?
Answer: Its AC50 is 35.5 µM [falling, single point].

Question: With `C/C(=N\NC(=O)c1cccnc1)c1cc(C)oc1C` as the molecule, how does the AC50 [1] read?
Answer: Its AC50 is 18.4 µM [falling, single point].

Question: For `COc1ccc(CC(=O)OCN2C(=O)c3ccccc3C2=O)cc1OC`, which AC50 [1] is on record?
Answer: Its AC50 is 14.1 µM [rising, partial curve, poor fit].

Question: Which AC50 [1] does the source give for `O=C(OCc1ccc(Cl)cc1)c1cccnc1Cl` here?
Answer: Its AC50 is 35.5 µM [rising, single point].

Question: With `CCNC(=O)c1ccc(CSc2ccc(Cl)cc2)cc1` as the molecule, how does the AC50 [1] read?
Answer: The AC50 was 29.1 µM [rising, single point].

Question: Which AC50 [1] does the source give for `O=C(Nc1ccccc1N1CCCCC1)C1CC(=O)N(c2ccccc2F)C1` (configuration not stated) here?
Answer: The AC50 was 18.4 µM [rising, single point].

Question: Which AC50 [1] does the source give for `COc1cc(/C=N/NC(=O)c2cncc(Br)c2)ccc1OC(=O)c1ccc2c(c1)OCO2` here?
Answer: Its AC50 is 14.1 µM [falling, single point].

Question: With `Cc1nc(-c2ccc(NC(=O)C3CC3)cc2)cs1` as the molecule, how does the AC50 [1] read?
Answer: The AC50 was 8.91 µM [falling, partial curve].

Question: For `O=C(Nc1ccc(Cc2ccncc2)cc1)c1ccc(N2CCOCC2)c([N+](=O)[O-])c1`, which AC50 [1] is on record?
Answer: Its AC50 is 22.4 µM [falling, single point].

Question: Which AC50 [1] does the source give for `CCOc1ccc(NC(=O)c2ccc3nccnc3c2)cc1` here?
Answer: The AC50 was 20.6 µM [falling, single point].

Question: Which AC50 [1] does the source give for `O=C(COC(=O)c1cccc2ccccc12)NCCCc1ccccc1` here?
Answer: The AC50 was 20.6 µM [rising, single point].

Question: For `Cc1cccc(CSc2nc3ccncc3n2CC(=O)Nc2cc(C)cc(C)c2)c1`, which AC50 [1] is on record?
Answer: The AC50 was 11.6 µM [falling, partial curve].

Question: With `COC(=O)C1=C(C)NC(C)=C(C(=O)OC)C1/C=C/c1ccccc1` as the molecule, how does the AC50 [2] read?
Answer: The AC50 was 11.6 µM [falling, partial curve].

Question: Which AC50 [1] does the source give for `CN1C(=O)CSc2ccc(NC(=O)NCc3ccccc3)cc21` here?
Answer: The AC50 was 2.24 µM [falling, partial curve, poor fit].

Question: For `Oc1c(Br)cc(Br)cc1CNc1ccc(F)cc1`, which AC50 [1] is on record?
Answer: Its AC50 is 10 µM [falling, partial curve, poor fit].

Question: For `COc1cccc(C(=O)N(C)CC(=O)Nc2cccc3ccccc23)c1`, which AC50 [1] is on record?
Answer: Its AC50 is 0.184 µM [rising, full curve, poor fit].

Question: With `CCOC(=O)c1c(C)n(C)c2ccc(OCC(O)Cn3nc(C)cc3C)cc12` (configuration not stated) as the molecule, how does the AC50 [1] read?
Answer: Its AC50 is 9.2 µM [falling, partial curve, poor fit].

Question: What does the source list for `Cc1onc(-c2ccccc2)c1-c1nc2ccccc2c(=O)o1`?
Answer: AC50 [1]: 29.1 µM [rising, single point]; AC50 [2]: 8.2 µM [falling, single point]

Question: Which AC50 [1] does the source give for `Cc1cccc(-c2nnc3n2N=C(c2ccccc2Br)CS3)c1` here?
Answer: Its AC50 is 31.6 µM [falling, single point].

Question: Which AC50 [1] does the source give for `CCc1ccc2c(c1)[C@]1(C(=O)N2)[C@@H]2C(=O)N(Cc3ccccc3)C(=O)[C@@H]2[C@@H]2CCCN21` here?
Answer: Its AC50 is 35.5 µM [falling, single point].

Question: For `O=C(NCc1ccc2c(c1)OCO2)c1ccc(Br)o1`, which AC50 [1] is on record?
Answer: The AC50 was 5.62 µM [rising, single point].

Question: With `O=C(NCCc1ccco1)C(=O)NCC1OCCCN1S(=O)(=O)c1ccccc1` (configuration not stated) as the molecule, how does the AC50 [1] read?
Answer: Its AC50 is 20 µM [rising, partial curve, poor fit].

Question: Which AC50 [1] does the source give for `COc1cc2ccccc2cc1C(=O)Nc1ccccc1Cl` here?
Answer: The AC50 was 35.5 µM [falling, single point].

Question: For `CN1CC[n+]2cnc3ccccc3c21`, which AC50 [1] is on record?
Answer: The AC50 was 0.00411 µM [falling, full curve, poor fit].

Question: For `N#Cc1cc2c(nc1SCc1nc3ccccc3[nH]1)CCC2`, which AC50 [1] is on record?
Answer: The AC50 was 1.78 µM [falling, full curve, poor fit].

Question: Which AC50 [1] does the source give for `CCN(C(=O)COc1ccccc1)c1nnc(-c2cccnc2)s1` here?
Answer: Its AC50 is 0.164 µM [falling, full curve, poor fit].

Question: With `COc1ccc(S(=O)(=O)n2c(CCN3CCOCC3)nc3ccccc32)cc1` as the molecule, how does the AC50 [1] read?
Answer: Its AC50 is 32.6 µM [falling, single point].

Question: For `O=C(Nc1cccc(Cl)c1)Nc1ccc(Cl)cn1`, which AC50 [1] is on record?
Answer: The AC50 was 23.1 µM [rising, single point].
